The target in this test is GST-CDC48 (rice (Oryza sativa L.)) (UniProt Q10RP0). In words: pull-down; Glutathione magnetic agarose beads with 500 µg of each recombinant protein (GST-tagged and His-tagged) in 600 µL buffer (50 mM Tris-HCl pH 7.5, 5% glycerol, 1 mM EDTA, 1 mM DTT, 1 mM PMSF, 0.01% Nonidet P-40, 150 mM KCl), 4 °C, 2 h; blots with anti-GST and anti-His; both purified.

By UniProt entry, the sequences of proteins in these tests, tags left out. Where a name states a change or a piece, a line headed by the entry shows the natural chain unless it says otherwise.
UniProt Q10RP0: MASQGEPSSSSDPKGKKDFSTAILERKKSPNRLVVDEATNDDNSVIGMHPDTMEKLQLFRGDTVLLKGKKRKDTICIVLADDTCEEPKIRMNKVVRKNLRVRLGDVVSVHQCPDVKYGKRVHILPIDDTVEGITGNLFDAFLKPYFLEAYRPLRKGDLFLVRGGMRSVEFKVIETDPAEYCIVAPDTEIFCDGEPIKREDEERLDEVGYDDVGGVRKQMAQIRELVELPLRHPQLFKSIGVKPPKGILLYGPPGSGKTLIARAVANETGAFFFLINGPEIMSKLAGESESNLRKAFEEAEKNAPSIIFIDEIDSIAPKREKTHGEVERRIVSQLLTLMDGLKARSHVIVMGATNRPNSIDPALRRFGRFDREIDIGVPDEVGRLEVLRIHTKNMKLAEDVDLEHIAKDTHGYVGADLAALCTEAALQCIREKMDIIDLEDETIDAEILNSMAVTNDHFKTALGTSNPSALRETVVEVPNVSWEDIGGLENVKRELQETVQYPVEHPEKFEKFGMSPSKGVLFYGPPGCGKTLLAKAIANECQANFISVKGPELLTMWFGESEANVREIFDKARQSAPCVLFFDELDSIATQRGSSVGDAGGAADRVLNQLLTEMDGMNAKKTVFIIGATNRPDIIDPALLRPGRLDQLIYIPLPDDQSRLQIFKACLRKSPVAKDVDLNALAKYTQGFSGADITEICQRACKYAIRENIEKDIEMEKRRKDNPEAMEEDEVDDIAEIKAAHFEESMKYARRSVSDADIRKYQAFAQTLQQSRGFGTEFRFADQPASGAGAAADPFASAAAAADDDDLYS
UniProt A0A4D6C9S8: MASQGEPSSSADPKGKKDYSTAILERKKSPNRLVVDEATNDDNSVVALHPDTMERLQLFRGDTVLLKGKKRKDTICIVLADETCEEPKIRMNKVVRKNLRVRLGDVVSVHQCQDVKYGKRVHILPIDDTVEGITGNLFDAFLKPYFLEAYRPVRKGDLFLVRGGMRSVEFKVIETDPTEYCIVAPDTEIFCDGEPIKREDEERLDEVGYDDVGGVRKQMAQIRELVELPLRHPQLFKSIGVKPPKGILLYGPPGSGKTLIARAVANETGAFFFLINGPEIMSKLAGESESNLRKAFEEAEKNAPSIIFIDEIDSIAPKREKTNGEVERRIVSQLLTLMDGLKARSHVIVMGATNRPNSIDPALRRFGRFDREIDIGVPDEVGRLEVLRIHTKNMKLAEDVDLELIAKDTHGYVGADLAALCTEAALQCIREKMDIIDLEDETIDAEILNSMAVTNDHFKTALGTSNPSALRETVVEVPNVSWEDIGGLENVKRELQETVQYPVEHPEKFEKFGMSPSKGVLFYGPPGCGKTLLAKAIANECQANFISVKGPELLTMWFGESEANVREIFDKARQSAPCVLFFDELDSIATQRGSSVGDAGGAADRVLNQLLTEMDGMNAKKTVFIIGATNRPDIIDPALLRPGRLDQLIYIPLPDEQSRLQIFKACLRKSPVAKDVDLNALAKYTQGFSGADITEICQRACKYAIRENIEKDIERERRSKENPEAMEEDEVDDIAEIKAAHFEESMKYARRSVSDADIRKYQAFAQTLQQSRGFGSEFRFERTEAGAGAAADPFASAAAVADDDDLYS

Results are given in words; binding and its absence hold for the method and conditions named. A result given as binding can be weak or reduced; the word gives no strength.

With His-CDC48 (from UniProt Q10RP0), the binding entry is recorded as “binds”. For His-CDC48E (from UniProt A0A4D6C9S8), the binding entry was “binds”.

These data come from article PMC6513905.
